Data as given in publication PMC3291658.
No constants are given. Whether binding was seen depends on the method and setting. Some binding calls cover weakened binding; strength is not graded here.

Columns and labels:
[1] = molecular target: NF-κB p50 (mouse (endogenous in J774)) (UniProt P25799); assay: native gel or EMSA; supershift: 5 µg nuclear extracts from J774 cells mock-treated or infected for 24 h by WT C. neoformans (KN99α), preincubated with preimmune serum or sera against each NF-κB family member alone or in combination; complexes bound to a κB site oligonucleotide
[2] = molecular target: T1, NF-κB p50 (mouse (endogenous in J774)), P25799; assay: as above; conditions: remark: other sources report otherwise
T1 chain: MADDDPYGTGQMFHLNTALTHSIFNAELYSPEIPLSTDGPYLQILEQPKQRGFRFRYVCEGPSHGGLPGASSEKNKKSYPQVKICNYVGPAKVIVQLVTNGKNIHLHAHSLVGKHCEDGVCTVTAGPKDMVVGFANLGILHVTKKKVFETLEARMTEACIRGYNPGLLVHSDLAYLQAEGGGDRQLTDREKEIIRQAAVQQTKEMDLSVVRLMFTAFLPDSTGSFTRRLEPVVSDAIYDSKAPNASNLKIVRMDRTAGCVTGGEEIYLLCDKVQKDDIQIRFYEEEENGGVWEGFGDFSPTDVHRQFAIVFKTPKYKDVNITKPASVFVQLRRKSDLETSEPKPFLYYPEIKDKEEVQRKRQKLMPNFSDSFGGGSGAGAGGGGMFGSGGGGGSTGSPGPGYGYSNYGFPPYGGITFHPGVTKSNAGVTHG

For NF-κB p50 (from UniProt P25799 1-431), the binding [1] was “binds”.

B1: NF-κB p65/RelA, Q04207 1-549 (protein)
chain: MDDLFPLIFPSEPAQASGPYVEIIEQPKQRGMRFRYKCEGRSAGSIPGERSTDTTKTHPTIKINGYTGPGTVRISLVTKDPPHRPHPHELVGKDCRDGYYEADLCPDRSIHSFQNLGIQCVKKRDLEQAISQRIQTNNNPFHVPIEEQRGDYDLNAVRLCFQVTVRDPAGRPLLLTPVLSHPIFDNRAPNTAELKICRVNRNSGSCLGGDEIFLLCDKVQKEDIEVYFTGPGWEARGSFSQADVHRQVAIVFRTPPYADPSLQAPVRVSMQLRRPSDRELSEPMEFQYLPDTDDRHRIEEKRKRTYETFKSIMKKSPFNGPTEPRPPTRRIAVPTRNSTSVPKPAPQPYTFPASLSTINFDEFSPMLLPSGQISNQALALAPSSAPVLAQTMVPSSAMVPLAQPPAPAPVLTPGPPQSLSAPVPKSTQAGEGTLSEALLHLQFDADEDLGALLGNSTDPGVFTDLASVDNSEFQQLLNQGVSMSHSTAEPMLMEYPEAITRLVTGSQRPPDPAPTPLGTSGLPNGLSGDEDFSSIADMDFSALLSQISS
In the case of B1, the binding [2] is reported as “binds”.
